No constants are given. Whether binding was seen depends on the method and setting. In cells and extracts the contact can be indirect. Some results given as binding are weak or reduced against the parent protein; the word gives no strength. Sequences can lack the tags named with a protein.

This test addresses T1, full-length PTP1B^WT with an N-terminal myc-tag (UniProt P18031).
T1 sequence: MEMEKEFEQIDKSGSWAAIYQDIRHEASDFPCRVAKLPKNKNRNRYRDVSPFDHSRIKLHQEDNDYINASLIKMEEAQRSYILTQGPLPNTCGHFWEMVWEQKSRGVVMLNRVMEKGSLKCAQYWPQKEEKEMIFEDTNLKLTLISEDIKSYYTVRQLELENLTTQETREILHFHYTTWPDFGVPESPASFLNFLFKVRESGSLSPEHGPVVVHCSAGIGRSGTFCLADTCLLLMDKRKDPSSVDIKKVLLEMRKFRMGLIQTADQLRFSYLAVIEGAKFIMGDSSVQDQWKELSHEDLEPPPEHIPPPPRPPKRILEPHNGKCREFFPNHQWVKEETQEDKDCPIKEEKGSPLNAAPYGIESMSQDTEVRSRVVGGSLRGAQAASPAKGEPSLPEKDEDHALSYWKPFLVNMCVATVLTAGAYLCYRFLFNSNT
In words: co-IP; HEK 293 cells transfected with N-terminally myc-tagged full-length PTP1B; immunoprecipitated with myc-tag-specific beads; co-immunoprecipitated protein seen by western blot; six separate transfections. A general note: In western blotting, separated proteins are transferred to a membrane and probed.

B1: ARHGAP12 (protein, UniProt Q8IWW6 1-846)
chain: MKMADRSGKIIPGQVYIEVEYDYEYEAKDRKIVIKQGERYILVKKTNDDWWQVKPDENSKAFYVPAQYVKEVTRKALMPPVKQVAGLPNNSTKIMQSLHLQRSTENVNKLPELSSFGKPSSSVQGTGLIRDANQNFGPSYNQGQTVNLSLDLTHNNGKFNNDSHSPKVSSQNRTRSFGHFPGPEFLDVEKTSFSQEQSCDSAGEGSERIHQDSESGDELSSSSTEQIRATTPPNQGRPDSPVYANLQELKISQSALPPLPGSPAIQINGEWETHKDSSGRCYYYNRGTQERTWKPPRWTRDASISKGDFQNPGDQELLSSEENYYSTSYSQSDSQCGSPPRGWSEELDERGHTLYTSDYTNEKWLKHVDDQGRQYYYSADGSRSEWELPKYNASSQQQREIIKSRSLDRRLQEPIVLTKWRHSTIVLDTNDKESPTASKPCFPENESSPSSPKHQDTASSPKDQEKYGLLNVTKIAENGKKVRKNWLSSWAVLQGSSLLFTKTQGSSTSWFGSNQSKPEFTVDLKGATIEMASKDKSSKKNVFELKTRQGTELLIQSDNDTVINDWFKVLSSTINNQAVETDEGIEEEIPDSPGIEKHDKEKEQKDPKKLRSFKVSSIDSSEQKKTKKNLKKFLTRRPTLQAVREKGYIKDQVFGSNLANLCQRENGTVPKFVKLCIEHVEEHGLDIDGIYRVSGNLAVIQKLRFAVNHDEKLDLNDSKWEDIHVITGALKMFFRELPEPLFTFNHFNDFVNAIKQEPRQRVAAVKDLIRQLPKPNQDTMQILFRHLRRVIENGEKNRMTYQSIAIVFGPTLLKPEKETGNIAVHTVYQNQIVELILLELSSIFGR
As for B1, the binding entry is “binds”.

Source of the values: publication doi:10.1101/2024.07.16.603632.
